This is an account of results in PMC3521694.

The chains behind the UniProt entries cited, without tags or fusion partners. Residues count along the entry.
UniProt Q5ZRP9, residues 1-316: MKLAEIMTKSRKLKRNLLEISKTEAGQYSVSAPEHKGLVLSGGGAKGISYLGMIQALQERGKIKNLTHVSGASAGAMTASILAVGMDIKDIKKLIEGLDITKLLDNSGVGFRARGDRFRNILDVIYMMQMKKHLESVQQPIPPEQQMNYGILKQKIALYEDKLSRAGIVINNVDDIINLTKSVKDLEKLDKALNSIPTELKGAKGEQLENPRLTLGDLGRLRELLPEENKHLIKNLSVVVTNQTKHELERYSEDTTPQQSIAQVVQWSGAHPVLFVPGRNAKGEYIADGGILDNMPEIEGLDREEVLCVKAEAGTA

In the assay the target is T1, endogenous Rab5b of RAW264.7 macrophages (mouse (endogenous in RAW264.7)) (UniProt P61021).
T1 sequence: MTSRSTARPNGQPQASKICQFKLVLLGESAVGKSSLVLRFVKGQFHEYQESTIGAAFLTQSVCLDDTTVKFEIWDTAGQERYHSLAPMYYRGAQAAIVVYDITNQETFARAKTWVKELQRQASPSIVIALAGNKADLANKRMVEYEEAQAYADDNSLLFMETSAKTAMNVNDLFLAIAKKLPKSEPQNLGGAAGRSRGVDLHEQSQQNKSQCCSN
The experiment in a line: co-IP.

Results are given in words; binding and its absence hold for the method and conditions named. Binding seen in cells or lysates may run through a third protein.

In the case of “Flag-tagged VipD(1-316) (from UniProt Q5ZRP9 1-316) (domain or fragment)”, the binding entry was “no binding”.
